Data as given in patent US20240034796A1 (GENUV, published 2024).
Numbering of substitutions follows the chain as printed. No constants are given. Whether binding was seen depends on the method and setting. Some results given as binding are weak or reduced against the parent protein; the word gives no strength.

Amino acid sequences for entries named in this document (tags omitted). A change or cut given only in a name is not applied to a line headed by its entry.
UniProt Q15116: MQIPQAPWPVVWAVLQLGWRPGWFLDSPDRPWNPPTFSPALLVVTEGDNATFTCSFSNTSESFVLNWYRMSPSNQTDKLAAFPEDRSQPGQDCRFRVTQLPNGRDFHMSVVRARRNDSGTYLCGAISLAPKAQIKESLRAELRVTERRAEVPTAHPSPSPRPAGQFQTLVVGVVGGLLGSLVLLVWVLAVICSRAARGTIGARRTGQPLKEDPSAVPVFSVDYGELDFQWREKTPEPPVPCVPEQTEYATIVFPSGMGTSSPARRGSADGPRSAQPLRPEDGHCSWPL

T1: Rat PD-1
T1 sequence: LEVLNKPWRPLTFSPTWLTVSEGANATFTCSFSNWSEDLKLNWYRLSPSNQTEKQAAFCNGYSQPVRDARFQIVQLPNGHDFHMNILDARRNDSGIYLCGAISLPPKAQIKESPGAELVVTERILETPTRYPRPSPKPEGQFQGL

B1: hybridoma 1G1 antibody (antibody, V domains shown)
VH: EVQLQQSGAELVKPGASVKLSCKASGYTFTGYWMHWVKQRPGQGLEWIGMIHPNSDTTTYNEKFKNRATLTVDKSSGTAYMQLSSLTSEDSAVYYCTGTDQAAWFAFWGQGTLVTVSA
VL: DIVLTQTPLSLPVSLGDQASISCRSSQNIVHSNGDTYLEWYLQKPGQSPKLLIYKVSKRFSGVPDRFSGSGSGTDFTLKISRVEAEDLGVYYCFQGSHVPWTFGGGTKLEIK
notes: Mouse antibody from the hybridoma, used as culture supernatant or Protein G purified; IgG1 reverse primer used for VH); also called 1G1 hybridoma antibody; monoclonal cell (hybridoma) 1G1 antibody
B2: chimeric 1G1 antibody (antibody, human IgG4 S228P, kappa, V domains shown)
VH: B1 VH
VL: DIVLTQTPLSLPVSLGDQASISCRSSQNIVHSNGDTYLEWYLQKPGQSPKLLIYKVSKRFSGVPDRFSGSGSGTDFTLKISRVEAEDLGVYYCFQGSHVPWTFGGGTKLEIKR
notes: signal peptide not part of the entries; also called 1G1 chimeric; 1G1-chimeric
B3: humanized antibody 1G1-h68 (antibody, human IgG4, kappa, V domains shown)
VH: QVQLVQSGAEVKKPGASVKVSCKASGYTFTGYWMHWVRQAPGQGLEWIGMIHPNSDTTTYNEKFKNRVTMTRDTSISTAYMELSRLRSDDTAVYYCTGTDQAAWFAFWGQGTTVTVSS
VL: B2 VL with L4M, P12S, S14T, L15P, D17Q, Q18P, K50Q, L88V, L109V
notes: hIgG4 heavy chain, human kappa light chain
B4: humanized antibody 1G1-h61 (antibody, human IgG4, kappa, V domains shown)
VH: B3 VH with I48M, T97A
VL: B2 VL with L4M, P12S, S14T, L15P, D17Q, Q18P, L88V, L109V
notes: as for B3
B5: humanized antibody 1G1-h70 (antibody, V domains shown)
VH: B3 VH with T97A
VL: B2 VL with L4M, P12S, S14T, L15P, D17Q, Q18P, N33Q, K50Q, L88V, L109V
notes: hIgG4 heavy chain, human kappa light chain; also called 1G1-h70 parent antibody (WT); U299-WTI
B6: 1G1-h70 antibody Fab (Fab, V domains shown)
VH: B3 VH with T97A
VL: B1 VL with L4M, P12S, S14T, L15P, D17Q, Q18P, N33Q, K50Q, L88V, L109V

How the values were obtained:
human PD-1 protein [1] = molecular target: T2, human PD-1 protein (human, UniProt Q15116 25-167, limits assumed); experiment: protein-based ELISA, hybridoma screening
T2 construct: also called human PD-1 antigen

human PD-1 protein [2] = molecular target: T2, human PD-1 protein; experiment: protein-based ELISA, coated human PD-1, hybridoma supernatant
[3] = molecular target: extracellular domain (ECD) PD-1 protein from cynomolgus (cynomolgus) (UniProt B0LAJ3); experiment: protein-based ELISA, coated PD-1 ECD, antibody at 1 ug/ml
[4] = molecular target: extracellular domain (ECD) PD-1 protein from cynomolgus (cynomolgus) (UniProt B0LAJ3); experiment: protein-based ELISA, 10 ng coated PD-1 ECD, antibody at 1 ug/ml
Rat PD-1 = molecular target: T1, Rat PD-1; experiment: protein-based ELISA, coated PD-1 ECD
human PD-1 protein [5] = molecular target: T2, human PD-1 protein; experiment: SPR (Biacore 8K), antibody captured on Protein A chip, human PD-1 as analyte
human PD-1 protein [6] = molecular target: T2, human PD-1 protein; experiment: SPR, Biacore 8K
human PD-1 protein [7] = molecular target: T2, human PD-1 protein; experiment: SPR (Biacore 8K), pH 6.0 (HBS-EP+), antibody (10 ug/ml) captured on Protein A chip, hPD1-His as analyte, 1:1 binding fit
human PD-1 protein [8] = molecular target: T2, human PD-1 protein; experiment: SPR (Biacore 8K), pH 7.4, antibody captured on Protein A chip, human PD-1 as analyte
human PD-1 protein [9] = molecular target: T2, human PD-1 protein; experiment: SPR (Biacore 8K), pH 7.4, antibody (10 ug/ml) captured on Protein A chip, hPD1-His as analyte, 1:1 binding fit
human PD-1 protein [10] = molecular target: T2, human PD-1 protein; experiment: SPR (Biacore 8K), pH 6.0, antibody captured on Protein A chip, human PD-1 as analyte
human PD-1 protein [11] = molecular target: T2, human PD-1 protein; experiment: co-crystallisation, X-ray crystallography

Row | Binder | binding (human PD-1 protein [1]) | binding (human PD-1 protein [2]) | binding [3] | binding [4] | binding (Rat PD-1) | binding (human PD-1 protein [5]) | binding (human PD-1 protein [6]) | binding (human PD-1 protein [7]) | binding (human PD-1 protein [8]) | binding (human PD-1 protein [9]) | binding (human PD-1 protein [10]) | binding (human PD-1 protein [11])
1 | B1 | binds | binds |  |  |  |  |  |  |  |  |  | 
2 | B2 |  |  | binds | binds | no binding (tested: 1 ug/ml (single concentration)) | binds |  |  |  |  |  | 
3 | B3 |  |  | binds | binds | no binding (tested: 1 ug/ml (single concentration)) | binds | binds |  |  |  |  | 
4 | B4 |  |  | binds | binds | no binding (tested: 1 ug/ml (single concentration)) | binds | binds |  |  |  |  | 
5 | B5 |  |  | binds | binds | no binding (tested: 1 ug/ml (single concentration)) | binds | binds | binds | binds | binds | binds | 
6 | B6 |  |  |  |  |  |  |  |  |  |  |  | binds
